# Source: publication PMC6500973
# Protein sequences, listed by entry. Tags and fused reporters are not part of them.
# UniProt P51532: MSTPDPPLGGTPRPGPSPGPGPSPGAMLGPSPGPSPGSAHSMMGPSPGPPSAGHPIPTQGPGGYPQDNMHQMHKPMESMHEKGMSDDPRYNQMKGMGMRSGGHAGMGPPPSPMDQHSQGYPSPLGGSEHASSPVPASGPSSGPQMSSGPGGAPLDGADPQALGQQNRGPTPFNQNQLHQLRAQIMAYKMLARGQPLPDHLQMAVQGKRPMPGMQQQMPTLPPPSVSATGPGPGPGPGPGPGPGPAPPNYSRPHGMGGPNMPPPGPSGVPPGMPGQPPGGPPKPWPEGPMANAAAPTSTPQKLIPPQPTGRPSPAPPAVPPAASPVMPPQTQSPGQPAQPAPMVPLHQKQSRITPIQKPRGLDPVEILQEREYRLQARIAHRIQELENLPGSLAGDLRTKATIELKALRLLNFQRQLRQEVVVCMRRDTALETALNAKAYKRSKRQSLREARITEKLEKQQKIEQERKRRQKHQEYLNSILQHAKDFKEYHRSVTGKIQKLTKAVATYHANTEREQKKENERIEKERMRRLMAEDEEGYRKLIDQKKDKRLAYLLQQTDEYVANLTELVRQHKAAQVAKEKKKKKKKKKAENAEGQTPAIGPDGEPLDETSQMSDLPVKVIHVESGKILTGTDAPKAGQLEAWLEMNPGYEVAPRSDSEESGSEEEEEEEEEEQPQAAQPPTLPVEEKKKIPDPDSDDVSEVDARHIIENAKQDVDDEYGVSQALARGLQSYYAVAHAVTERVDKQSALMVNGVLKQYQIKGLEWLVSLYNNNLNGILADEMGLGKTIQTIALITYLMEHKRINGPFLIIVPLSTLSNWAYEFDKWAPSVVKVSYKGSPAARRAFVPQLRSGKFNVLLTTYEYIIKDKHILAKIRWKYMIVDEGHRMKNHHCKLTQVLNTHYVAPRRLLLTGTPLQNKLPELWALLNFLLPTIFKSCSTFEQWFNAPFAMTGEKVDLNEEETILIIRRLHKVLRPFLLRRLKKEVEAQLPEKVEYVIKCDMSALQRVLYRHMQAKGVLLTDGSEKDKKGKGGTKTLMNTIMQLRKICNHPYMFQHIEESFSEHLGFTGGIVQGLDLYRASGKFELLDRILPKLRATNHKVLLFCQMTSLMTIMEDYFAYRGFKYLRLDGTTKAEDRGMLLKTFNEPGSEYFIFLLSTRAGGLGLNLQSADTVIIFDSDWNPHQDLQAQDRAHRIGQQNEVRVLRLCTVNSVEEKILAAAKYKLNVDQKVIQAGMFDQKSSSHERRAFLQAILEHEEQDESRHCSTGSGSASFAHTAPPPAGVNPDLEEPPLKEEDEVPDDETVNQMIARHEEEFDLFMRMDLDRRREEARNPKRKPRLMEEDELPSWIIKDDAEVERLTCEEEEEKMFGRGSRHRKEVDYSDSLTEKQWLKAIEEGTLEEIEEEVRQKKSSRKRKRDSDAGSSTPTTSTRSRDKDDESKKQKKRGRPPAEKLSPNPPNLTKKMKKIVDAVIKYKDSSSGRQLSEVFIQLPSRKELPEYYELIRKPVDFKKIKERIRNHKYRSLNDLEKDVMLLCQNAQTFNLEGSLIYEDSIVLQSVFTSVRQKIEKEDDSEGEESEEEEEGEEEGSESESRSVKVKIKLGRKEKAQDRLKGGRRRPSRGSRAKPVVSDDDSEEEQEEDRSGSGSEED
# UniProt Q01844: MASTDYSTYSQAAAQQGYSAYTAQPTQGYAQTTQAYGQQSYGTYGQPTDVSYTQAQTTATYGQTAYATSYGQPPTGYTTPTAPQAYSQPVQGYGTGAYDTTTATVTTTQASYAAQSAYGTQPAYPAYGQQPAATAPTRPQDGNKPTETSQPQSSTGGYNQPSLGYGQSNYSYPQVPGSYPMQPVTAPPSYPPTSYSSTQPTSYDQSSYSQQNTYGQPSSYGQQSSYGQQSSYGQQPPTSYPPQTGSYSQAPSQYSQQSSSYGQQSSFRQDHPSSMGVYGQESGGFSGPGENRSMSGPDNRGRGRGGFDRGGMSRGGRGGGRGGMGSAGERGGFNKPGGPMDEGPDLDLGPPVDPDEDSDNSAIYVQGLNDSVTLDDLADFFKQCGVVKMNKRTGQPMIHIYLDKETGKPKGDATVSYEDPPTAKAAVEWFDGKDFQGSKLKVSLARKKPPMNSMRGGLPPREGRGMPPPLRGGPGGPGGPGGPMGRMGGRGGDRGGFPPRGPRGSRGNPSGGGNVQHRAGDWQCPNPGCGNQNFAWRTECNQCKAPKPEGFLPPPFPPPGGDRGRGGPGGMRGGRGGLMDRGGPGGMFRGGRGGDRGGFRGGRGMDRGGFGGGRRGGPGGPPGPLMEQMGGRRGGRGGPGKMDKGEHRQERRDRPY
# UniProt P35637: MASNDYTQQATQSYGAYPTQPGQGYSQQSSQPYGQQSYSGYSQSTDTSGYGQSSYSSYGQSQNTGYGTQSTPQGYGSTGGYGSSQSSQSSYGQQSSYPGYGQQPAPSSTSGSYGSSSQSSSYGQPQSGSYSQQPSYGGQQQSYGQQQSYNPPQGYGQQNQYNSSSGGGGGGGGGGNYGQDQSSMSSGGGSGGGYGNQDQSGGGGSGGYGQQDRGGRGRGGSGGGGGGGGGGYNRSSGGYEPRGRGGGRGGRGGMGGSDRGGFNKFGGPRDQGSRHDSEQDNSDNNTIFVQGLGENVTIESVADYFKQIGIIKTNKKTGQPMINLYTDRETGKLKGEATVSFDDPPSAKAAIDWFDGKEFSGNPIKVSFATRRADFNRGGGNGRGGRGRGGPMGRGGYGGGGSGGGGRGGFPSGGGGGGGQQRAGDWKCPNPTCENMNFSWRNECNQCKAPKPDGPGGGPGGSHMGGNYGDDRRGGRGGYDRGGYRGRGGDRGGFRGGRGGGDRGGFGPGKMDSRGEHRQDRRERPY
# UniProt Q6STE5: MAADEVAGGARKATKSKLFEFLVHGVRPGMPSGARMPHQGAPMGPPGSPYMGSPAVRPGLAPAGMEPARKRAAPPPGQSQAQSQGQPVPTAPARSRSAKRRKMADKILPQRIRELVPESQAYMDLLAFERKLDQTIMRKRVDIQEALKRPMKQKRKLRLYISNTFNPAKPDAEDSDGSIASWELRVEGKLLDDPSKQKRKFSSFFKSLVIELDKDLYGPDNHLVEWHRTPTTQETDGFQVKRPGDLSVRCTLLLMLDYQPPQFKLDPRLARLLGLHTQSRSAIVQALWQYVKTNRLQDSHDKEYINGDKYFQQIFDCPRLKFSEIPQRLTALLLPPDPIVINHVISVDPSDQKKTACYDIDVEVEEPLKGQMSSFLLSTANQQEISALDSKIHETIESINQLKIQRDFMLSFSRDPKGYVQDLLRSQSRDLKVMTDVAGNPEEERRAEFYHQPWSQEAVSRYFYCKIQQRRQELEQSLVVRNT
# UniProt Q92922: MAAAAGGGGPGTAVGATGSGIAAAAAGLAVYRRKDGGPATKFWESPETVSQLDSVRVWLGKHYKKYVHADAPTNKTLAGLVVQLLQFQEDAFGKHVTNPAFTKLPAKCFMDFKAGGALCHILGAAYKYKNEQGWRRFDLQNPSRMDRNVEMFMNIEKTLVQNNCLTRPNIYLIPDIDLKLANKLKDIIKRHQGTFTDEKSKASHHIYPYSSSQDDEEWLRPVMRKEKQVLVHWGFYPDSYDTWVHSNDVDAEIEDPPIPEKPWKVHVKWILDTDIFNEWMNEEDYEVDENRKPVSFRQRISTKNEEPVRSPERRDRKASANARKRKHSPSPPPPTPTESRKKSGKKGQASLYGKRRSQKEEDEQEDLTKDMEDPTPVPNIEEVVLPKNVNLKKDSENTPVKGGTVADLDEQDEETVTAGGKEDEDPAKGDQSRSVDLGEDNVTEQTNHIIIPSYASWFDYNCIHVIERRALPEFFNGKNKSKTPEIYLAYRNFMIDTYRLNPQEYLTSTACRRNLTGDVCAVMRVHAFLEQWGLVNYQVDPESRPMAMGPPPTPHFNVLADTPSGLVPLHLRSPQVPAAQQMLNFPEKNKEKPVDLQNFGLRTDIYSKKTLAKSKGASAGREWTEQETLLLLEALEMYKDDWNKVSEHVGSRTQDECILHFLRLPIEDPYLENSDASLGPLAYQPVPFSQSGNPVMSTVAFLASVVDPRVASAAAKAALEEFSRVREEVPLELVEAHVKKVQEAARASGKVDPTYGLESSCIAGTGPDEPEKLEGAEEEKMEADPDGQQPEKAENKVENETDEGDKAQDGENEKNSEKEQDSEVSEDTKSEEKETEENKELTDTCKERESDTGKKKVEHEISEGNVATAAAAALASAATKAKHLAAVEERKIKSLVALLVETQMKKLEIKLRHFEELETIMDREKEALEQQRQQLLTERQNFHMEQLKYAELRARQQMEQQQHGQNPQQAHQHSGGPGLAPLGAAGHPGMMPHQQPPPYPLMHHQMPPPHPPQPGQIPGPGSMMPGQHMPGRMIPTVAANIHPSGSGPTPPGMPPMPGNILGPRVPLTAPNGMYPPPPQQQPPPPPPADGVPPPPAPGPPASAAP
# UniProt Q8TAQ2: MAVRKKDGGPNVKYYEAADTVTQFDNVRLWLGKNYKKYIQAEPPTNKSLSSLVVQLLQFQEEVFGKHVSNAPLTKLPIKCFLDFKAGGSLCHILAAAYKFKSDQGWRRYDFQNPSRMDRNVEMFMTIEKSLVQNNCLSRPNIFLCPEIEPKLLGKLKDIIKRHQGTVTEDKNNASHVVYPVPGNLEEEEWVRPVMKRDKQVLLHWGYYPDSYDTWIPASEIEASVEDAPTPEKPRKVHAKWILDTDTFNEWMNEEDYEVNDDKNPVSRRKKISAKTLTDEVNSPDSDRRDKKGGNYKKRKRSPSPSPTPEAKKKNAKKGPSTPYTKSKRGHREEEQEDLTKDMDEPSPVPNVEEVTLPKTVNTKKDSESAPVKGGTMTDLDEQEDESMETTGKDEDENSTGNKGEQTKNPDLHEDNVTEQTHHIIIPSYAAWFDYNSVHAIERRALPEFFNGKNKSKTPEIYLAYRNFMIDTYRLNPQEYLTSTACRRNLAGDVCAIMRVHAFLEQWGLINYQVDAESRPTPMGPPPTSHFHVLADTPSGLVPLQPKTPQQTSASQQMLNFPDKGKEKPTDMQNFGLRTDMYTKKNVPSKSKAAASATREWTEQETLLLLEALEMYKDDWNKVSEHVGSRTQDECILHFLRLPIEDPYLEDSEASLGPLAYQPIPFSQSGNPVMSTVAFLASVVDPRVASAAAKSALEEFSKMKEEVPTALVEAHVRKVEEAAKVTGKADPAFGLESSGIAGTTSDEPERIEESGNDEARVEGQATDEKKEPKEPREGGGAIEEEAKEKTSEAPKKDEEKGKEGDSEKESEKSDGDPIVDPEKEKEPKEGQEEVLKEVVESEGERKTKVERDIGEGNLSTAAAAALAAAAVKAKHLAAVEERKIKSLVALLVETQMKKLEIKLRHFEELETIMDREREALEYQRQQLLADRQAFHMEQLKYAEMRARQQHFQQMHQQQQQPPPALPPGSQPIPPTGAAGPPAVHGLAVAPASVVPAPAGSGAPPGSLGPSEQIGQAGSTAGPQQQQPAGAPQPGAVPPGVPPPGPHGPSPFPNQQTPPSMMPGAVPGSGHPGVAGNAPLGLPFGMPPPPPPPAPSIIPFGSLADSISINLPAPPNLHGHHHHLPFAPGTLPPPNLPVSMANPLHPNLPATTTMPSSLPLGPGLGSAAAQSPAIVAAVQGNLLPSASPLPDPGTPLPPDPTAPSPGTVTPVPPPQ
# UniProt Q92785: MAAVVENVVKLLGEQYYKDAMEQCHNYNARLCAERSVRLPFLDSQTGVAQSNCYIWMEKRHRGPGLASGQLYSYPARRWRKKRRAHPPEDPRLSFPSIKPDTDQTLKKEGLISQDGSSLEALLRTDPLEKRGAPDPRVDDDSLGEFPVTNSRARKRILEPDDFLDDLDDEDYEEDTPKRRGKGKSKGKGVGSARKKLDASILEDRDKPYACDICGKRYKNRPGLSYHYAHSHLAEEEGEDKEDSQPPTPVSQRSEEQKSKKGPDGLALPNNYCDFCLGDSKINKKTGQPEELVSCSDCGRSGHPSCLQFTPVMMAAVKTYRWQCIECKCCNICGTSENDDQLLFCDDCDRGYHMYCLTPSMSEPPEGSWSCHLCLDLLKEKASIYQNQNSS
# UniProt Q92925: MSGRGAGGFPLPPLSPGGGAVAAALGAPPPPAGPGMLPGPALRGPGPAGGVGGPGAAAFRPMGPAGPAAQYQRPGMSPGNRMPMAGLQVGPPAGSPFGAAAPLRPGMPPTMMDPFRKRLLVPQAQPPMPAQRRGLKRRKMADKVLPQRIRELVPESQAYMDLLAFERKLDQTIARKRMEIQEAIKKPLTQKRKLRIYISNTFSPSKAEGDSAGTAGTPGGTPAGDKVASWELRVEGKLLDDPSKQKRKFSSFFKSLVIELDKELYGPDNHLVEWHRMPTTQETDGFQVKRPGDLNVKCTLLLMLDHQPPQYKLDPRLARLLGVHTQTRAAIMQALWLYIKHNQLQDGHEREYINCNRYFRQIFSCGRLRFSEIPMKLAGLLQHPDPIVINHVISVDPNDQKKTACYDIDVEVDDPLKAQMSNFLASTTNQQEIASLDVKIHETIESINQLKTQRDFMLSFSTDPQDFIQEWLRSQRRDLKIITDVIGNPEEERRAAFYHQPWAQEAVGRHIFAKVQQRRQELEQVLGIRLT
# Results are given in words; binding and its absence hold for the method and conditions named. Binding seen in cells or lysates may run through a third protein. A yes stands for co-enrichment or nearness to the bait. Other partners may have been found.
# Columns and labels:
# [1] = target: BRG1 (human (endogenous in Raji, MLS, EWS and HT1080 cell lines)) (UniProt P51532); assay: affinity purification with mass spectrometry; biotinylated anti-BRG1 antibody and streptavidin Dynabeads on nuclear extracts (150 mM salt) of MLS 402-91, MLS 2645-94, EWS TC-71 and EWS IOR/CAR; washes in 10 mM TEAB; 1% formic acid eluates analysed by MS (Study 2)
# [2] = target: GST‐tagged EWSR1‐NTD (human) (UniProt Q01844); assay: affinity purification with mass spectrometry; GST-tagged FET-NTD baits on Glutathione-Sepharose 4B incubated with Raji cell extract 2-4 h at 4°C; washed four times in 20 mM Tris pH 7.5, 0.5% NP-40, 100 mM NaCl, 2 mM MgCl2; SDS-PAGE, excised gel bands analysed by MS (Study 1); only the target purified
# [3] = target: GST‐tagged FUS‐NTD (human) (UniProt P35637); assay: as above
Molecule,binding [1],binding [2],binding [3]
BAF47 (from UniProt Q12824 1-385),binds,,
BAF57 (from UniProt Q969G3 1-411),binds,,
BAF60C (from UniProt Q6STE5 1-483),binds,,
BAF155 (from UniProt Q92922 1-1105),,binds,binds
BAF170 (from UniProt Q8TAQ2 1-1214),binds,binds,binds
BRG1 (from UniProt P51532 1-1647),,binds,binds
"BAF45A (protein, UniProt Q8WUB8 1-498) MAAAAGPGAALSPRPCDSDPATPGAQSPKDDNEDNSNDGTQPSKRRRMGSGDSSRSCETSSQDLGFSYYPAENLIEYKWPPDETGEYYMLQEQVSEYLGVTSFKRKYPDLERRDLSHKEKLYLRELNVITETQCTLGLTALRSDEVIDLMIKEYPAKHAEYSVILQEKERQRITDHYKEYSQMQQQNTQKVEASKVPEYIKKAAKKAAEFNSNLNRERMEERRAYFDLQTHVIQVPQGKYKVLPTERTKVSSYPVALIPGQFQEYYKRYSPDELRYLPLNTALYEPPLDPELPALDSDGDSDDGEDGRGDEKRKNKGTSDSSSGNVSEGESPPDSQEDSFQGRQKSKDKAATPRKDGPKRSVLSKSVPGYKPKVIPNAICGICLKGKESNKKGKAESLIHCSQCENSGHPSCLDMTMELVSMIKTYPWQCMECKTCIICGQPHHEEEMMFCDMCDRGYHTFCVGLGAIPSGRWICDCCQRAPPTPRKVGRRGKNSKEG",binds,,

# The remaining lines, values ahead:
binding [1],binding [2],binding [3],Molecule
binds,,,BAF45D (from UniProt Q92785 1-391)
binds,,,BAF60B (from UniProt Q92925 1-531)
binds,,,EWSR1 (from UniProt Q01844 1-656)
binds,,,FUS (from UniProt P35637 1-526)
